Screen size: about 350,000 compounds; about 6,000 (1.7%) were called active. This list was built around the results that the source calls inconclusive (neither active nor inactive); the mix of calls is not that of the screen. Rule as the data show it: active = CPE inhibition above about 20% (passing the limit was not always enough); inconclusive = no clear call, values can overlap the other calls; tested in BHK-21 cells.
Test: protection of cells from dengue 2 killing – plate reader, single concentration, primary screen (AID 651640);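 also: 0% = median of neutral control wells and 100% = median of positive control wells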
Conditions: DENV2-infected cells, cytopathic effect rescue, at 9.99 µM, hits give high values

Row | SMILES | CPE inhibition
1 | COC(=O)C(C)N1C(=O)S/C(=C\c2ccc(-c3ccc(C(=O)O)cc3C)o2)C1=O (stereo not given) | inactive: -2.11%
2 | CN(Cc1ccccc1)C(=O)c1ccc(NC(=O)Cc2ccc(NC(=O)C3CCCN(C(=O)C4CC4)C3)cc2)cc1 (stereo not given) | inconclusive: 41.3%
3 | C[C@H](CO)N1C[C@H](C)[C@@H](CN(C)C(=O)NC2CCCCC2)Oc2c(NS(=O)(=O)c3cn(C)cn3)cccc2C1=O | inconclusive: 21.2%
4 | C[C@@H]1CN([C@@H](C)CO)C(=O)c2cccc(NC(=O)NC3CCCCC3)c2O[C@@H]1CN(C)S(=O)(=O)c1ccc(Cl)cc1 | inactive: 16.4%
5 | COc1ccc(CSCC(=O)NN=C2CCN(C)CC2)cc1 | inconclusive: 33%
6 | C[C@@H]1CN([C@H](C)CO)C(=O)c2cc(-c3cccc(C#N)c3)cnc2O[C@H]1CN(C)C(=O)C1CCC1 | active: 27.5%
7 | Cc1ccc(-c2cnc3c(c2)C(=O)N([C@@H](C)CO)C[C@H](C)[C@@H](CN(C)C(=O)Cc2ccccc2)O3)cc1 | inactive: -8.78%
8 | CCN1C(=O)[C@@H]2[C@H](C1=O)[C@@H]1C(=O)Nc3ccccc3C(=O)N1[C@@H]2c1cccc(OC)c1 | inconclusive: 64.9%
9 | O=C(C[C@@H]1CC[C@@H](NC(=O)c2ccccc2)[C@H](CO)O1)NCc1ccc(Oc2ccccc2)cc1 | inactive: 2.82%
10 | COc1ccc(S(=O)(=O)N(C)C[C@H]2Oc3c(NS(=O)(=O)c4ccc(C)cc4)cccc3C(=O)N([C@@H](C)CO)C[C@@H]2C)cc1 | inconclusive: 23.8%
11 | Cc1ccccc1CN1CCN(CC(=O)NC(C)c2ccccc2)CC1 (stereo not given) | active: 27.2%
12 | O=C(c1ccc2c(c1)OCO2)N1CC(=O)N2[C@H](CO)[C@H](c3ccc(C#Cc4ccccc4)cc3)[C@@H]2C1 | inactive: 1.46%
13 | CSc1ccccc1NC(=O)c1ccc2c(c1)CCN2S(C)(=O)=O | inconclusive: 23.4%
14 | COc1ccccc1S(=O)(=O)N[C@H]1CC[C@H](CCNC(=O)C2CC2)O[C@H]1CO | inconclusive: 43.5%
15 | Cn1c(=O)c2cc(NC(=S)NC3CCCCC3)ccc2n1Cc1ccc(F)cc1 | inconclusive: 48%
16 | CCOc1cc(C(=O)OC(C(=O)NC(=O)NC)c2ccccc2)ccc1OCC(=O)N1CCOCC1 (stereo not given) | inconclusive: 22.5%
17 | CC1CC(C)CN(S(=O)(=O)c2cc3c4c(c2)C(C)C(=O)N4CCC3)C1 (stereo not given) | inconclusive: 25.8%
18 | COc1ccc(/C=C2\SC(N3CCc4ccccc4C3)=NC2=O)cc1 | inconclusive: 27.8%

An excerpt of these results, as a markdown table.

| Row | SMILES | CPE inhibition |
| --- | --- | --- |
| 6 | C[C@@H]1CN([C@H](C)CO)C(=O)c2cc(-c3cccc(C#N)c3)cnc2O[C@H]1CN(C)C(=O)C1CCC1 | active: 27.5% |
| 7 | Cc1ccc(-c2cnc3c(c2)C(=O)N([C@@H](C)CO)C[C@H](C)[C@@H](CN(C)C(=O)Cc2ccccc2)O3)cc1 | inactive: -8.78% |
| 8 | CCN1C(=O)[C@@H]2[C@H](C1=O)[C@@H]1C(=O)Nc3ccccc3C(=O)N1[C@@H]2c1cccc(OC)c1 | inconclusive: 64.9% |
| 9 | O=C(C[C@@H]1CC[C@@H](NC(=O)c2ccccc2)[C@H](CO)O1)NCc1ccc(Oc2ccccc2)cc1 | inactive: 2.82% |
| 10 | COc1ccc(S(=O)(=O)N(C)C[C@H]2Oc3c(NS(=O)(=O)c4ccc(C)cc4)cccc3C(=O)N([C@@H](C)CO)C[C@@H]2C)cc1 | inconclusive: 23.8% |
| 11 | Cc1ccccc1CN1CCN(CC(=O)NC(C)c2ccccc2)CC1 (stereo not given) | active: 27.2% |
| 12 | O=C(c1ccc2c(c1)OCO2)N1CC(=O)N2[C@H](CO)[C@H](c3ccc(C#Cc4ccccc4)cc3)[C@@H]2C1 | inactive: 1.46% |
| 13 | CSc1ccccc1NC(=O)c1ccc2c(c1)CCN2S(C)(=O)=O | inconclusive: 23.4% |
| 14 | COc1ccccc1S(=O)(=O)N[C@H]1CC[C@H](CCNC(=O)C2CC2)O[C@H]1CO | inconclusive: 43.5% |
| 15 | Cn1c(=O)c2cc(NC(=S)NC3CCCCC3)ccc2n1Cc1ccc(F)cc1 | inconclusive: 48% |

The results go on:

Row | SMILES | CPE inhibition
19 | C[C@@H]1CN([C@H](C)CO)C(=O)Cc2cc(NC(=O)CCN3CCOCC3)ccc2O[C@H]1CN(C)C(=O)Nc1ccc(C(F)(F)F)cc1 | inactive: 2.44%
20 | O=C(O)CCCCCN=Cc1c(O)c2ccccc2oc1=O | inconclusive: 20.2%
21 | COc1ccc(-c2cnc3c(c2)C(=O)N([C@H](C)CO)C[C@H](C)[C@H](CN(C)C(=O)NC2CCCCC2)O3)cc1 | inconclusive: 34.9%
22 | CCCCCc1cc(=O)oc2c(C(CCN3CCCC3)c3cc(OC)c(OC)c(OC)c3)c(OC)cc(OC)c12 (stereo not given) | inactive: -2.99%
23 | O=C(CSC1CS(=O)(=O)c2cc([N+](=O)[O-])ccc21)NNC(=O)c1ccc(Cl)cc1 (stereo not given) | inconclusive: 21.6%
24 | OC[C@H]1CC[C@@H]2O[C@H](CCc3ccc(-c4ccccc4)cc3)[C@@H](n3cc(C4CC4)nn3)C[C@@H]2O1 | active: 52.9%
25 | COc1ccc(N2CCN(C(=O)CCc3c[nH]c4ccccc34)CC2)cc1 | inactive: 0.0835%
26 | COCCCN(C(=O)CCOc1ccc(C)cc1)c1c(N)n(Cc2ccccc2)c(=O)[nH]c1=O | inconclusive: 25.1%
27 | Cc1ccc(S(=O)(=O)Nc2ccc3c(c2)C(=O)N([C@@H](C)CO)C[C@H](C)[C@@H](CN(C)Cc2ccccc2)OCCCC[C@H](C)O3)cc1 | inactive: -16.9%
28 | Cc1noc(C)c1NC(=O)N(C)C[C@@H]1Oc2c(NC(=O)NC(C)C)cccc2C(=O)N([C@H](C)CO)C[C@@H]1C | inactive: -10.3%
29 | C[C@H]1CN([C@@H](C)CO)C(=O)Cc2cc(NS(=O)(=O)c3ccc(F)cc3)ccc2O[C@H]1CN(C)C(=O)Nc1ccc(F)cc1 | inactive: 2.2%
30 | O=C(NC[C@@H]1[C@@H](c2ccccc2)[C@@H](CO)N1Cc1ccccn1)C1CC1 | inactive: 18.1%
31 | CN1/C(=C/C(=O)COC(=O)C2COc3ccccc3O2)C(C)(C)c2ccccc21 (stereo not given) | inconclusive: 21.2%
32 | CC(C)CCNC(=O)COc1ccc(N(C)S(=O)(=O)c2ccc(F)cc2)cc1 | inconclusive: 20.2%
33 | Cn1c(Nc2ccc(F)cc2)nc2ccccc21 | inconclusive: 24.3%
34 | C[C@@H]1CN([C@@H](C)CO)C(=O)Cc2cc(NC(=O)Nc3ccc(F)cc3)ccc2O[C@@H]1CN(C)S(=O)(=O)c1ccccc1 | active: 76.2%
35 | CC(=O)N(C)C[C@@H]1Oc2cc(-c3ccc(C)cc3)ccc2S(=O)(=O)N([C@H](C)CO)C[C@H]1C | inactive: -1.18%
